Experimental data taken from the supplement of paper PMC7024190.
Structures can show the parent of a compound that is named as a salt. The list shows a part of the results. Repeats in this data set agree poorly, so a single value says little.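 Human embryonic kidney cells were transiently transfected with a plasmid bearing a Renilla luciferase gene under the HSV-TK promoter. This first-round screen tests roughly ten thousand compounds for ones that increase reporter output.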

The compounds below were run on HEK 293FT (assay: log relative Renilla luciferase luminescence (reporter expression vs reference, reference not stated) (log (base not stated)); higher = higher recombinant reporter expression). Conditions: 10 µM; time after transfection 48 h.

| SMILES | log |
| --- | --- |
| N[C@@H](CS(=O)O)C(=O)O [L-Cysteinesulfinic acid] | 0.109 |
| CC#C[C@]1(O)CC[C@H]2[C@@H]3CCC4=CC(=O)CCC4=C3[C@@H](c3ccc(N(C)C)cc3)C[C@@]21C [Mifepristone] | 0.0238 |
| CC1C(=O)OC2C(O)C34C5CC(C(C)(C)C)C36C(OC(=O)C6O)OC4(C(=O)O5)C12O (centres undefined) [Ginkgolide B] | 0.00628 |
| CCOc1ccc(Nc2nc(-c3c(C)nc4ccccn34)cs2)cc1 | 0.137 |
| CCc1cc(C(C)=O)c(O)cc1OCCCCCC(C)(C)c1nn[nH]n1 | -0.129 |
| c1ccc(CN(CC2=NCCN2)c2ccccc2)cc1 [Antazoline hydrochloride] | -0.00432 |
| O=C(Nc1cccc2cccnc12)c1ccc(N2C(=O)[C@@H]3[C@H](C2=O)[C@@H]2C=C[C@H]3C2)cc1 [endo-IWR 1] | 0.0512 |
| Cn1cc(C(=O)OCC2CCN(CCNS(C)(=O)=O)CC2)c2ccccc21 | 0.038 |
| COc1ccc(Br)cc1S(=O)(=O)NC(=O)/C=C/c1ccccc1Cc1ccc2ccccc2c1 | 0.0596 |
| Oc1ccc(Nc2nc(-c3ccc(Cl)cc3)cs2)cc1 | 0.0168 |
| O=c1cc(-c2ccccc2)oc2cc(O)c(O)c(O)c12 [Baicalein] | 0.0667 |
| O=C1CN(/N=C/c2ccc(-c3ccc([N+](=O)[O-])cc3)o2)C(=O)N1 [Dantrolene, sodium salt] | -0.0428 |
| CCCCCCCC/C=C\CCCCCCCC(N)=O [Oleamide] | -0.173 |
| O=C(O)C(=O)O.[NH-][C@@H]1CCCC[C@H]1[NH-].[Pt+2] [Oxaliplatin] | -0.012 |
| NC(=O)c1cccc(N)c1 [3-Aminobenzamide] | 0.156 |
| NC(C(=O)O)c1cc(O)cc(O)c1 (racemic) | 0.00213 |
| OC(CN1CCN(c2cccc(Cl)c2)CC1)C(c1ccccc1)c1ccccc1 (centres undefined) | 0.025 |
| Nc1ccc(-c2cccc3c(=O)cc(N4CCOCC4)oc23)cc1 | -4.81e-05 |
| Cc1cc(C)cc(C(=O)N(C)[C@H](Cc2ccc(-c3ccccc3)cc2)C(=O)N[C@@H](Cc2c[nH]c3ccccc23)C(=O)O)c1 | 0.191 |
| O=C(NCCN1CCCCC1)c1ccc(I)cc1 [N-[2-(Piperidinylamino)ethyl]-4-iodobenzamide] | 0.00743 |

| SMILES | log |
| --- | --- |
| CCCCc1nn(-c2ccccc2C(F)(F)F)c(=O)n1Cc1ccc(-c2ccccc2S(=O)(=O)NC(=O)c2sccc2C)cc1 | -0.19 |
| CCc1c2c(nc3ccc(OC(=O)N4CCC(N5CCCCC5)CC4)cc13)-c1cc3c(c(=O)n1C2)COC(=O)[C@]3(O)CC | -0.361 |
| CCCCC#Cc1nc(NC)c2ncn([C@@H]3O[C@H](CO)[C@@H](O)[C@H]3O)c2n1 | -0.0137 |
| O=[N+]([O-])c1cccc2c(Br)[nH]nc12 [3-Bromo-7-nitroindazole] | -0.05 |
| FC(F)(F)c1ccc(/C=C/c2nc(COc3ccc(CCCCn4ccnn4)cc3)co2)cc1 | -1.38 |
| Cn1nnc2c(C(N)=O)ncn2c1=O [Temozolomide] | 0.007 |
| COc1cc2ncnc(Nc3ccc(Oc4ccccc4)cc3)c2cc1OC | -0.112 |
| CCN1CCC[C@H]1CNC(=O)c1c(OC)ccc(Br)c1OC [Remoxipride hydrochloride] | 0.0591 |
| O=C(CCCCCN1C(=O)c2cccc3cccc(c23)C1=O)NO [Scriptaid] | 0.651 |
| CC(Cc1ccc(O)c(O)c1)(NN)C(=O)O [(S)-(-)-Carbidopa] | 0.119 |
| CCCCCCCCc1ccc(-c2ccc(C(=O)O)cc2)cc1 | -0.0154 |
| O=C(NC(NC(=S)Nc1ccc(F)c([N+](=O)[O-])c1)C(Cl)(Cl)Cl)C(c1ccccc1)c1ccccc1 (centres undefined) | -0.0529 |
| O=S(=O)(c1ccccc1)N(CC(F)(F)F)c1ccc(C(O)(C(F)(F)F)C(F)(F)F)cc1 | 0.0269 |
| OC[C@H]1O[C@@H](n2cnc3c(N[C@H]4CCC[C@@H]4O)ncnc32)[C@H](O)[C@@H]1O | 0.0778 |
| NC(=O)N1c2ccccc2CC(O)c2ccccc21 (centres undefined) [Licarbazepine] | 0.183 |
| O=C(/C=C/c1ccccc1)NC(NC(=S)Nc1cccc2cccnc12)C(Cl)(Cl)Cl (centres undefined) [Salubrinal] | 0.0781 |
| COC(=O)[C@H]1[C@H]2C[C@@H]3c4[nH]c5cc(OC)ccc5c4CCN3C[C@H]2C[C@@H](OC(=O)c2cc(OC)c(OC)c(OC)c2)[C@@H]1OC [Reserpine] | -0.0748 |
| N[C@@H](Cc1cc(-c2ccc(Cl)cc2Cl)cc(CP(=O)(O)O)c1O)C(=O)O | 0.00106 |
| Nc1c(Br)cc(Br)cc1CN[C@H]1CC[C@H](O)CC1 [Ambroxol hydrochloride] | -0.0661 |

2 entries picked at random from those above, as already listed:

| SMILES | log |
| --- | --- |
| O=C1CN(/N=C/c2ccc(-c3ccc([N+](=O)[O-])cc3)o2)C(=O)N1 [Dantrolene, sodium salt] | -0.0428 |
| CC#C[C@]1(O)CC[C@H]2[C@@H]3CCC4=CC(=O)CCC4=C3[C@@H](c3ccc(N(C)C)cc3)C[C@@]21C [Mifepristone] | 0.0238 |
